Experimental data reported in paper PMC6424956 (Scientific Reports, 2019).
Where “and” joins values, the source holds several entries; their conditions need not be identical. Equal entries are not always repeated. HELM strings list residues between dots; [ac] is acetyl, [am] amide, other brackets name non-standard units. Square brackets hold non-standard residues; d marks the D form. dAla(4-thiazolyl) = N[C@H](Cc1cscn1)C(=O)O; hCha = N[C@@H](CCC1CCCCC1)C(=O)O

Assay: general procedure: Fmoc solid-phase peptide synthesis; Fmoc-Rink-Amide AM resin; COMU / Oxyma Pure
Details: whole synthesis, scale of the general procedure 100 μmols; for final HPLC purity: 220 nm

Substance | final HPLC purity | isolated yield (run 1) | final HPLC purity (run 1)
Ac-HA[hCha]YPRH-NH2 (SMILES CC(=O)N[C@@H](Cc1c[nH]cn1)C(=O)N[C@@H](C)C(=O)N[C@@H](CCC1CCCCC1)C(=O)N[C@@H](Cc1ccc(O)cc1)C(=O)N1CCC[C@H]1C(=O)N[C@@H](CCCNC(=N)N)C(=O)N[C@@H](Cc1c[nH]cn1)C(N)=O) | 100% | 16% and 15% | 
PEPTIDE1{[ac].[dH].[dR].[dP].[dY].[dI].[dA].[dH].[am]}$$$$V2.0 |  | 63% | 94% and 95%
Ac-[dAla(4-thiazolyl)][dR][dP][dY][dI][dA][dH]-NH2 (SMILES CC[C@@H](C)[C@@H](NC(=O)[C@@H](Cc1ccc(O)cc1)NC(=O)[C@H]1CCCN1C(=O)[C@@H](CCCNC(=N)N)NC(=O)[C@@H](Cc1cscn1)NC(C)=O)C(=O)N[C@H](C)C(=O)N[C@H](Cc1c[nH]cn1)C(N)=O) |  |  | 97% and 98%
PEPTIDE1{[ac].H.A.I.Y.P.R.H.[am]}$$$$V2.0 | 97% | 15% | 
